Data taken from publication PMC7380067.
The exact form of at least one protein or probe is not confirmed. Weaker means in comparison with the reference protein, sequence or condition of that experiment. Tags and fusion partners may be left off the protein sequences shown.

Biological target: T1, MBP-AgrR (Cupriavidus metallidurans NA4) (UniProt Q1LMJ6)
T1 sequence (looked up): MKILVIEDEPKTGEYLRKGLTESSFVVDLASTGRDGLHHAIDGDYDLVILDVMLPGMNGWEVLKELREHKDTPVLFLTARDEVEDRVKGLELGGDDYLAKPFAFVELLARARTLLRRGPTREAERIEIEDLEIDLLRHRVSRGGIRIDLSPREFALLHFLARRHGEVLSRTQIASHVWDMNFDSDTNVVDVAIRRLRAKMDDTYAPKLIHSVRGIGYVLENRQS
Experiment: EMSA
Conditions: 5.85 uM protein; 25 mM Na2HPO4, 150 mM NaCl, 0.1 mM EDTA, 2 mM MgCl2, 1 mM DTT, 10% glycerol, pH 7.0, 22 C, about 0.1 nM probe, 25 ug/ml sonicated salmon sperm DNA; recombinant protein; residues 1-224; protein details: N-terminal MBP (pMAL-c2X); label: 5'-32P single end; probe letters rebuilt from the primers and the …

GTTTTCATCCTCAGCTGCACGGGCTCACAGCTCAAACGATGCCGCCGATGATAACGGCGCAGGTTCGCCTATTGGATGACAAGACTGTAATCGTTTCGTCCCCGTTTGAAAGGGTGTTGCGTACATAGAATCGCCGCTAATTCTGGATGACCGGCGCCGACAGCGCCTGGAGTGAACCATGTGGATTGTGC (double strand) [agrR control region]
binding result: binds more weakly
